Earlier results as cited in patent US6572880B2, “Methods and transdermal compositions for pain relief” (priority 1996, dated 2003).

Conditions: oral; Dextroamphetamine as time release spansule; cited from earlier work

In the case of `C[C@H](N)Cc1ccccc1` [Dextroamphetamine], the duration of action is given as 5 to 6 h.
For `COC(=O)C(c1ccccc1)C1CCCCN1` (centres unmarked) [Methylphenidate], the duration of action is given as 2 to 4 h.
